Assay results reported in patent US20260232827A1 (Zymeworks BC Inc., priority 2023, published 2026).

Experiment: general procedure: solution-phase peptide synthesis; HATU
Conditions: for conjugation yield: conjugation step

Substance “2-((2-(((S)-1-((2-(((S)-4-ethyl-8-fluoro-4-hydroxy-3,14-dioxo-3,4,12,14-tetrahydro-1H-pyrano[3′,4′:6,7]indolizino[1,2-b]quinolin-9-yl)amino)-2-oxoethyl)amino)-1-oxo-3-phenylpropan-2-yl)amino)-2-oxoethyl)amino)-2-oxoethan-1-aminium” has a step yield (coupling step) of 88% yield.

“(9H-fluoren-9-yl)methyl ((7S)-1-((3-azabicyclo[3.1.1]heptan-6-yl)oxy)-7-benzyl-3,6,9,12-tetraoxo-2,5,8,11-tetraazatridecan-13-yl)carbamate” gave a step yield (late stage modification step) of 46% yield.

With “(9H-fluoren-9-yl)methyl (S)-(9-benzyl-1-(3-fluoroazetidin-3-yl)-5,8,11,14-tetraoxo-2-oxa-4,7,10,13-tetraazapentadecan-15-yl)carbamate” the step yield (late stage modification step) was 54% yield.

For “(9H-fluoren-9-yl)methyl (S)-(12-benzyl-1-(4-nitrophenoxy)-1,8,11,14,17-pentaoxo-2,5-dioxa-7,10,13,16-tetraazaoctadecan-18-yl)carbamate”, the step yield (late stage modification step, from Compound 4.6) was 53% yield from Compound 4.6%.

In the case of “(S)-2-(1-(2,5-dioxo-2,5-dihydro-1H-pyrrol-1-yl)-12,15-dioxo-3,6,9-trioxa-13,16-diazaoctadecan-18-amido)-N-(1-((S)-4-ethyl-8-fluoro-4-hydroxy-9-methyl-3,14-dioxo-3,4,12,14-tetrahydro-1H-pyrano[3′,4′:6,7]indolizino[1,2-b]quinolin-11-yl)-3,10-dioxo-7-oxa-2,4,9-triazaundecan-11-yl)-3-phenylpropana”, the conjugation yield is reported as 26% yield.

Substance “(S)-2-(1-(2,5-dioxo-2,5-dihydro-1H-pyrrol-1-yl)-12,15-dioxo-3,6,9-trioxa-13,16-diazaoctadecan-18-amido)-N-(2-((4-(4-(((S)-4-ethyl-8-fluoro-4-hydroxy-9-methyl-3,14-dioxo-3,4,12,14-tetrahydro-1H-pyrano[3′,4′:6,7]indolizino[1,2-b]quinolin-11-yl)methyl)piperazin-1-yl)phenyl)amino)-2-oxoethyl)-3-ph” has a conjugation yield of 20% yield.

With “(S)-16-amino-10-benzyl-6,9,12,15-tetraoxo-3-oxa-5,8,11,14-tetraazahexadecyl (((S)-4-ethyl-8-fluoro-4-hydroxy-9-methyl-3,14-dioxo-3,4,12,14-tetrahydro-1H-pyrano[3′,4′:6,7]indolizino[1,2-b]quinolin-11-yl)methyl)carbamate” the conjugation yield (TFA salt) was 39% yield.

“tert-butyl (2-((2-(((S)-1-((2-((4-(4-(((S)-4-ethyl-8-fluoro-4-hydroxy-9-methyl-3,14-dioxo-3,4,12,14-tetrahydro-1H-pyrano[3′,4′:6,7]indolizino[1,2-b]quinolin-11-yl)methyl)piperazin-1-yl)phenyl)amino)-2-oxoethyl)amino)-1-oxo-3-phenylpropan-2-yl)amino)-2-oxoethyl)amino)-2-oxoethyl)carbamate” showed a conjugation yield of 62% yield.

“tert-butyl (2-((2-(((S)-1-((2-((4-((4-(((S)-4-ethyl-8-fluoro-4-hydroxy-9-methyl-3,14-dioxo-3,4,12,14-tetrahydro-1H-pyrano[3′,4′:6,7]indolizino[1,2-b]quinolin-11-yl)methyl)piperazin-1-yl)sulfonyl)phenyl)amino)-2-oxoethyl)amino)-1-oxo-3-phenylpropan-2-yl)amino)-2-oxoethyl)amino)-2-oxoethyl)carbam” gave a conjugation yield of 42% yield.

Work on “tert-butyl (2-((2-(((S)-1-((2-(((S)-4-ethyl-8-fluoro-4-hydroxy-3,14-dioxo-3,4,12,14-tetrahydro-1H-pyrano[3′,4′:6,7]indolizino[1,2-b]quinolin-9-yl)amino)-2-oxoethyl)amino)-1-oxo-3-phenylpropan-2-yl)amino)-2-oxoethyl)amino)-2-oxoethyl)carbamate” yielded a conjugation yield of 17% yield.

For “tert-butyl (((S)-9-(2-((S)-2-(2-(2-aminoacetamido)acetamido)-3-phenylpropanamido)acetamido)-4-ethyl-8-fluoro-4-hydroxy-3,14-dioxo-3,4,12,14-tetrahydro-1H-pyrano[3′,4′:6,7]indolizino[1,2-b]quinolin-11-yl)methyl)carbamate”, the step yield (coupling step, TFA salt) was 64% yield.
